From PubChem BioAssay AID493014 (National Center for Advancing Translational Sciences (NCATS), 2011)
The list shows a part of the results. These are further read-outs of the screen, such as a control signal, another cell line or another target. No call is given for them. Compounds called inactive in the main read-out are mostly missing here. Potencies come from curve fits of mixed quality, noted in brackets.

Experiment: qHTS Assay to Find Inhibitors of Chronic Active B-Cell Receptor Signaling
Details: ABC-DLBCL IkBa-CBG/CBR reporter, luminescence ratio (green luciferase fused to IkBa over red control in TMD8 lymphoma cells), 4 h
Summary of the method: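 Compounds up to 46 uM were incubated four hours with TMD8 cells whose green CBG68 luciferase is fused to IkappaBalpha; red CBR luminescence normalised the signal, and concentration-effect curves were fitted to fusion, red and ratio data.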

[1] = measured here: CBR red luminescence, cell number
[2] = measured here: IkBa-CBG green luminescence

| Structure (SMILES) | AC50 [1] | AC50 [2] |
| --- | --- | --- |
| CCN(CC)C(=O)c1cc(C(C)(C)C)c(O)c(C(C)(C)C)c1 | 14.6 µM [falling, partial curve, poor fit] | – |
| Cc1ccc(Nc2cc(C)c3ccc(O)cc3n2)cc1C | 17.8 µM [rising, partial curve, poor fit] | – |
| COc1ccc(NC(=O)CSc2nnc(-c3ccoc3C)n2CCc2ccccc2)cc1 | 4.11 µM [falling, full curve, poor fit] | – |
| CCc1ccc(NC(=O)c2ccccc2Br)cc1 | 8.91 µM [falling, partial curve] | – |
| O=C1NC(=O)C(=C2CCCCCC2)S1 | 11.6 µM [rising, partial curve] | 9.2 µM [falling, partial curve] |
| COc1ccc(CCNc2ncnc3c2c(C)c(C)n3CCO)cc1OC | 35.5 µM [rising, single point] | – |
| COc1cc(/C=C2\N=C(c3c(-c4ccccc4)noc3C)OC2=O)ccc1OC(C)=O | 25.1 µM [falling, single point] | – |
| Cc1ccc(NC(=O)NCCCCc2ccccc2)cc1 | 0.1 µM [rising, full curve, poor fit] | – |
| COc1ccccc1NC(=O)COc1ccc2c(c1)OCO2 | 7.08 µM [falling, full curve, poor fit] | – |
| COc1cccc(NC(=O)N2CCN(c3nc(-c4cccc(OC)c4)cs3)CC2)c1 | 35.5 µM [falling, single point] | – |
| CCOC(=O)CCCNC(=O)CN1CCC(c2nc3ccccc3s2)CC1 | 8.91 µM [falling, partial curve, poor fit] | – |
| O=C(Nc1ccccc1N1CCCCC1)C1CCN(S(=O)(=O)c2cccc(C(F)(F)F)c2)CC1 | 25.9 µM [falling, partial curve, poor fit] | – |
| CC(C)c1nc2c(c(=O)c3ccccc3n2C)c(=O)n1CCc1ccccc1 | 2.51 µM [falling, full curve, poor fit] | – |
| N/C(Cc1ccc(Cl)c(Cl)c1)=N\OC(=O)c1ccc(Br)o1 | 6.31 µM [rising, partial curve, poor fit] | – |
| O=C(NN=C1C2CC3CC(C2)CC1C3)c1cc(Cl)ccc1O | 1 µM [falling, full curve] | – |
| CCOc1ccc(-c2cc(N3C(=O)Nc4ccccc4N3O)on2)cc1 | 10.3 µM [falling, partial curve, poor fit] | – |
| O=C(CNC(=O)c1cccnc1)N/N=C/c1ccc(O)cc1O | 5.01 µM [falling, full curve, poor fit] | – |
| Cc1nn(CC(=O)Nc2ccc3c(c2)nc(CCN2CCCCC2)n3C)c(=O)c2ccccc12 | 32.6 µM [falling, single point] | – |
| Oc1ccc(CNCc2ccc3c(c2)OCO3)c2cccnc12 | – | 8.2 µM [falling, partial curve, poor fit] |
| O=C(Oc1oc(-c2ccco2)nc1C=Nc1ccccc1)c1ccoc1 | 12.6 µM [falling, partial curve, poor fit] | – |
| O=c1[nH][nH]c(-c2ccccc2)c1C=Nc1ccccc1 | 14.1 µM [falling, single point] | – |

Structures from the list above that contain a furan ring, fused or not:

| Structure (SMILES) | AC50 [1] | AC50 [2] |
| --- | --- | --- |
| COc1ccc(NC(=O)CSc2nnc(-c3ccoc3C)n2CCc2ccccc2)cc1 | 4.11 µM [falling, full curve, poor fit] | – |
| N/C(Cc1ccc(Cl)c(Cl)c1)=N\OC(=O)c1ccc(Br)o1 | 6.31 µM [rising, partial curve, poor fit] | – |
| O=C(Oc1oc(-c2ccco2)nc1C=Nc1ccccc1)c1ccoc1 | 12.6 µM [falling, partial curve, poor fit] | – |

Additional compounds:

| Structure (SMILES) | AC50 [1] | AC50 [2] |
| --- | --- | --- |
| Cc1ccc(C)c(-c2csc(NC(=O)c3c(C)noc3C)n2)c1 | 14.6 µM [falling, partial curve, poor fit] | – |
| C=CCN1C(c2ccc(OCC)cc2)=CS/C1=C(\C#N)c1nnc2n1CCCCC2 | 2.06 µM [falling, partial curve, poor fit] | – |
| Cc1cc(NC(=O)Cn2nnc3sc4c(c3c2=O)CCC(C(C)(C)C)C4)no1 (stereo not drawn) | 35.5 µM [rising, single point] | – |
| Cc1ccn2c(c1)nc(=S)n2C(=O)c1ccccc1 | 3.66 µM [falling, full curve] | – |
| CC(C)n1c(C(=O)OCC(=O)NCc2ccc3c(c2)OCO3)cc2occc21 | 20 µM [rising, single point] | – |
| CCN1CCN(c2cc(C)c3cc(NC(=O)c4cncc(Br)c4)ccc3n2)CC1 | 2.24 µM [falling, partial curve] | – |
| O=C1COc2ccc(C(=O)COc3ccc(Cl)cc3Br)cc2N1 | 0.259 µM [rising, full curve, poor fit] | – |
| CC(CC(=O)O)Nc1ccccc1O (stereo not drawn) | 15.8 µM [falling, single point] | – |
| Nc1cnc(Nc2ccc(Br)cc2)nc1N | 15.8 µM [falling, single point] | 15.8 µM [rising, partial curve, poor fit] |
| COc1cccc(NC(=O)CN2C(=O)C3(OCCCO3)c3ccccc32)c1 | 15.8 µM [falling, partial curve, poor fit] | – |
| O=C(CSc1nccc(=O)[nH]1)Nc1ccc2c(c1)OCCO2 | 35.5 µM [falling, single point] | – |
| COc1cccc2cc(C(N)=O)/c(=N\NC(=O)c3ccccc3)oc12 | 3.55 µM [falling, full curve, poor fit] | – |
| Nc1ccc(Cc2nc3cc4ccccc4cc3[nH]2)cc1 | 0.631 µM [falling, full curve, poor fit] | – |
| Cc1nc(CSc2nnc(Nc3cccc(C)c3C)s2)cs1 | 18.4 µM [rising, single point] | – |
| CCOC(=O)c1ccc(N2C(=O)C(CC(N)=O)N(NC(=O)c3cccc(F)c3)C2=S)cc1 (stereo not drawn) | 1 µM [falling, full curve] | – |
| CC(NC(=O)c1ccccc1NC(=O)c1ccco1)c1ccccc1 (stereo not drawn) | 29.1 µM [rising, single point] | – |
| O=C(NCC(=O)N1CCN(S(=O)(=O)c2ccc3c(c2)OCCO3)CC1)c1ccccc1F | 29.1 µM [rising, partial curve, poor fit] | – |
| O=C(Nc1nc2ccccc2[nH]1)C1CCN(C(=O)c2ccc(F)cc2)CC1 | 7.31 µM [falling, partial curve] | – |
| CC(=O)Nc1ccc(S(=O)(=O)Nc2c(C)n(C)n(-c3ccccc3)c2=O)cc1 | 15.8 µM [rising, partial curve, poor fit] | – |
| CCOC(=O)C(=O)Nc1nnc(CCc2ccccc2)s1 | 1.03 µM [falling, partial curve, poor fit] | – |
